Reference: the supplement of paper PMC10849652
The list shows a part of the results. Residues, ends and D or L forms follow the SMILES beside them. *: point of attachment. Cbz = O=C(OCc1ccccc1)*

Protein sequences, listed by entry. Tags and fused reporters are not part of them. Lines headed by an entry give the natural chain unless they say otherwise; changes in a name come on top.
UniProt Q9BUN8: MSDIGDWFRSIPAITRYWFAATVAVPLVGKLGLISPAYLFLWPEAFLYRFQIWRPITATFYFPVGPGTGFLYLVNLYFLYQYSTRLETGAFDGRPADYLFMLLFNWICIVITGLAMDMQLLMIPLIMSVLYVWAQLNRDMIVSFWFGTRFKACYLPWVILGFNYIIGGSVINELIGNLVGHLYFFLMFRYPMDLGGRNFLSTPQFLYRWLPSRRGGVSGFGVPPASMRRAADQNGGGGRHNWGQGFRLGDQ
UniProt P0CG22: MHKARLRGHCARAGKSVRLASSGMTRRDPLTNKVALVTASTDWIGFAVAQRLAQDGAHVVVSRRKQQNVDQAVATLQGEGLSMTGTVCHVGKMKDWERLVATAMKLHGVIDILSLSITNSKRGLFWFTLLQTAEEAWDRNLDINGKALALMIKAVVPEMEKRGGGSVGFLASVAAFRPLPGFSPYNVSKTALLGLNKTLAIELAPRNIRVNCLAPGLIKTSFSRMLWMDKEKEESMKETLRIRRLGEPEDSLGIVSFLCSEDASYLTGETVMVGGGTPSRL
UniProt Q8WYQ5: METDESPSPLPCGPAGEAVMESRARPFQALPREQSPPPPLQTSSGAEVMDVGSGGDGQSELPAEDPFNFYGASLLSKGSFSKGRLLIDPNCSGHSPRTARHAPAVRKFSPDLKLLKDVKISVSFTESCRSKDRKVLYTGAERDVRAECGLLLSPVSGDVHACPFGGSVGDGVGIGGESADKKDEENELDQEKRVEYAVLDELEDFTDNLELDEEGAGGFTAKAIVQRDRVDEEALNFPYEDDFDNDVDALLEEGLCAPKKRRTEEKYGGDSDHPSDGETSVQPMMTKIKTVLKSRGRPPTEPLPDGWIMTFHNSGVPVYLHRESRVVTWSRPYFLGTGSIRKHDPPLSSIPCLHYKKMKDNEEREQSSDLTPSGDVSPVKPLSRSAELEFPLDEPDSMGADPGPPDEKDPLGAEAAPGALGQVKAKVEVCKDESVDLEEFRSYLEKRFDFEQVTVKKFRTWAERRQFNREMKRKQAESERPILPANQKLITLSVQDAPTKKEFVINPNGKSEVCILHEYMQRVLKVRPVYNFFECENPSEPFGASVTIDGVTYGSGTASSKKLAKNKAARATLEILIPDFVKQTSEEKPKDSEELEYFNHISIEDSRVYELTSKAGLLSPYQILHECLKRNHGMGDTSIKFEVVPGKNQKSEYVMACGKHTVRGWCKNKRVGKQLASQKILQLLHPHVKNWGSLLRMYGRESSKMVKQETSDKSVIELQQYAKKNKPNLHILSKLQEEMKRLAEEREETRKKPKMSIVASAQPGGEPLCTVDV
UniProt O60884: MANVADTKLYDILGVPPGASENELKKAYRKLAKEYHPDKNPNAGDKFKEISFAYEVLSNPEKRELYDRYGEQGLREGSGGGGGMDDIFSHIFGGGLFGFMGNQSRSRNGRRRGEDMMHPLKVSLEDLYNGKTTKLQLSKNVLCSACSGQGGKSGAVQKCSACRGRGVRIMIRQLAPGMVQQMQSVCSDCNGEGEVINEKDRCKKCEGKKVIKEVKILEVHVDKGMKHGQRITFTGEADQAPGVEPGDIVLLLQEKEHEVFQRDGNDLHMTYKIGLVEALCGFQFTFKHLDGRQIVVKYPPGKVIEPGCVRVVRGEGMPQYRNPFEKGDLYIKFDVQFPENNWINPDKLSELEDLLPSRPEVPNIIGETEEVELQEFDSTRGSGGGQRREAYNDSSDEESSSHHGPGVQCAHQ
UniProt Q9NR30: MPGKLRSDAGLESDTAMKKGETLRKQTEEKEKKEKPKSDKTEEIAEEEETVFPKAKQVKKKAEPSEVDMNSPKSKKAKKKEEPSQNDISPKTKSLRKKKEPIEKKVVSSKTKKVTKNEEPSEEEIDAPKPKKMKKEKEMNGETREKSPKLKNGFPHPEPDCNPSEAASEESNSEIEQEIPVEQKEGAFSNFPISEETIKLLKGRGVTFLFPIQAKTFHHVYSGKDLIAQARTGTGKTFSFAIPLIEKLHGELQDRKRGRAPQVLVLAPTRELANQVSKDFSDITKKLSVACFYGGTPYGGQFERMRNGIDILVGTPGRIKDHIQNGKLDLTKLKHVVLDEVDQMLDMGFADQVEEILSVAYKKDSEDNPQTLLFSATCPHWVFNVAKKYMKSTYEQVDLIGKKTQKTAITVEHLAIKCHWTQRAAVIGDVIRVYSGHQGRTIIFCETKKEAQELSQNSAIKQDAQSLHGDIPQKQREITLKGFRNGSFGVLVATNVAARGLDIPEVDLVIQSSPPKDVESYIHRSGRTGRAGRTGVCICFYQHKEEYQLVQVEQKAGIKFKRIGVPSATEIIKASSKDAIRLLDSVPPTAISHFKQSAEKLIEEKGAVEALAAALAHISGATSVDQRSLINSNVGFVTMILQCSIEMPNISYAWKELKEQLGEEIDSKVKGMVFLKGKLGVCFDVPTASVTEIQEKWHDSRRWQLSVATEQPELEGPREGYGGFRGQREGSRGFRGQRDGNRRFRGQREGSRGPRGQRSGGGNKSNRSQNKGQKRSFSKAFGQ
UniProt Q8IYB7: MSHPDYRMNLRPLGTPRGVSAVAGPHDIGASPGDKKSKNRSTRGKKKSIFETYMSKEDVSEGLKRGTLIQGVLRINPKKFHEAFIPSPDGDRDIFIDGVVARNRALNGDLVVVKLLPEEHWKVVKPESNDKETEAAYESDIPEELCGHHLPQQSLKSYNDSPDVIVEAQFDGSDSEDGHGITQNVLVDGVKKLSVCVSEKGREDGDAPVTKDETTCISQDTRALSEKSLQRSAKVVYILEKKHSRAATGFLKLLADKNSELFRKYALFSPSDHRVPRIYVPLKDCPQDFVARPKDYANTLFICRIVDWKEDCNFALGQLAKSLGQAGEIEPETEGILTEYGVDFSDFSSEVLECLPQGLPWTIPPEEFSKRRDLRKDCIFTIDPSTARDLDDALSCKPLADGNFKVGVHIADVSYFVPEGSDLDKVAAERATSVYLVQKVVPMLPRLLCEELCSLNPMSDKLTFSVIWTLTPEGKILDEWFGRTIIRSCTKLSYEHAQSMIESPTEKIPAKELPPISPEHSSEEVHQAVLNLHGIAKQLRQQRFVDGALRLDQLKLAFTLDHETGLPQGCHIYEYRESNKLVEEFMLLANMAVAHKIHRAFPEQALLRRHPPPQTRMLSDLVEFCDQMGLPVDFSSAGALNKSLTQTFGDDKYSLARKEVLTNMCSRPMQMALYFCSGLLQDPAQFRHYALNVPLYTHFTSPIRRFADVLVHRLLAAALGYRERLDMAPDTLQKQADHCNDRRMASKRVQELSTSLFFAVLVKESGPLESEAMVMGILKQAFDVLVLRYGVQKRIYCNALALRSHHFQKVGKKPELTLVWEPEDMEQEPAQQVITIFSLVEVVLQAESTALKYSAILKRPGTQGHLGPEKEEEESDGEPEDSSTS
UniProt Q92796: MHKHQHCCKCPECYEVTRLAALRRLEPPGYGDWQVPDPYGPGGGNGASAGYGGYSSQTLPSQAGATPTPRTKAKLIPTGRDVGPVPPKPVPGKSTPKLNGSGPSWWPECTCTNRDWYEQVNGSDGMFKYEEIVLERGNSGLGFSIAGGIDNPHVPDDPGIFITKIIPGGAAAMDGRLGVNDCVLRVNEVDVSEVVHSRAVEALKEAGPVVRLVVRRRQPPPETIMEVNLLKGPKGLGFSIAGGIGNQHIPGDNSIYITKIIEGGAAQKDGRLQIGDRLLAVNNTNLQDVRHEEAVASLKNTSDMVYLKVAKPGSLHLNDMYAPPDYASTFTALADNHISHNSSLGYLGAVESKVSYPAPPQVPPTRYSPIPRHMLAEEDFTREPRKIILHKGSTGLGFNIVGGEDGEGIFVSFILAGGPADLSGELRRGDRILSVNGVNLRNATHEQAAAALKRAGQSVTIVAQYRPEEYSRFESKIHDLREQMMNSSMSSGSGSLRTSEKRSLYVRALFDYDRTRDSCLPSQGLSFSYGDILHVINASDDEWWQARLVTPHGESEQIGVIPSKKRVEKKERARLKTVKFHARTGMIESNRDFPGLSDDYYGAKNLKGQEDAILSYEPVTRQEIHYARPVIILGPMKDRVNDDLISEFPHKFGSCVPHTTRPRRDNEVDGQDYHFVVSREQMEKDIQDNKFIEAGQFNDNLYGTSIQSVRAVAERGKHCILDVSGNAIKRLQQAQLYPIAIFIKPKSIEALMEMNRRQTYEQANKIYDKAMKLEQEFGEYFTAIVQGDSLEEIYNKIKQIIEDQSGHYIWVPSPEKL
UniProt Q12959, whole entry, looked up: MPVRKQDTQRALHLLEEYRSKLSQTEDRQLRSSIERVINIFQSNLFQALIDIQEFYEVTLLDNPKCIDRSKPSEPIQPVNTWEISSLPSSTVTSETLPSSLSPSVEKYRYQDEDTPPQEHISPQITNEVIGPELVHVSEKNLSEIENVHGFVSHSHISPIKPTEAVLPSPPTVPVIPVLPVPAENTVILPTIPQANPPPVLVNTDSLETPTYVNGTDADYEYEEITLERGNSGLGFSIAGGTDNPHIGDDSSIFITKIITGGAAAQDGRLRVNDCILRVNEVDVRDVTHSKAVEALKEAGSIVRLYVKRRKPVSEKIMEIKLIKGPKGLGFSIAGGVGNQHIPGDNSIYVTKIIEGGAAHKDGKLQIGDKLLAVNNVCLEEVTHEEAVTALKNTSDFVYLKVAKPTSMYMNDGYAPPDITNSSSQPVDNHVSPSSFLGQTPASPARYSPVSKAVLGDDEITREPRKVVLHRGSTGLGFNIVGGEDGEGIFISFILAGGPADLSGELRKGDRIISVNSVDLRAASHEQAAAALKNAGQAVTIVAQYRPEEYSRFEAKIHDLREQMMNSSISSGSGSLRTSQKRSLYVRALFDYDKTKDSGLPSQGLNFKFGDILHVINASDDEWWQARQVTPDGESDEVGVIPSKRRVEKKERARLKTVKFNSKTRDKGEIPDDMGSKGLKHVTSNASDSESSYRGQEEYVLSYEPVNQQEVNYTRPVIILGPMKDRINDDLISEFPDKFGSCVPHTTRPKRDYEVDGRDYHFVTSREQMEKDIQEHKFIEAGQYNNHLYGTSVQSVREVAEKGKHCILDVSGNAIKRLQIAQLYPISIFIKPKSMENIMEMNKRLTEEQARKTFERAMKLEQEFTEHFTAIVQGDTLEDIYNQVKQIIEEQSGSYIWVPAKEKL
UniProt Q6UWP2: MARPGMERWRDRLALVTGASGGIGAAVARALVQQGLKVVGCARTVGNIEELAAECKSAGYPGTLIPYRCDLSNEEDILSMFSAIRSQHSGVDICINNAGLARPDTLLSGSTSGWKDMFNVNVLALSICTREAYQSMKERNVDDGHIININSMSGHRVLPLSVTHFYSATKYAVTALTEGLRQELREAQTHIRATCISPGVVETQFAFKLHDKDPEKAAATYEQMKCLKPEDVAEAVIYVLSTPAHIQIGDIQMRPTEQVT
UniProt Q9UHI6: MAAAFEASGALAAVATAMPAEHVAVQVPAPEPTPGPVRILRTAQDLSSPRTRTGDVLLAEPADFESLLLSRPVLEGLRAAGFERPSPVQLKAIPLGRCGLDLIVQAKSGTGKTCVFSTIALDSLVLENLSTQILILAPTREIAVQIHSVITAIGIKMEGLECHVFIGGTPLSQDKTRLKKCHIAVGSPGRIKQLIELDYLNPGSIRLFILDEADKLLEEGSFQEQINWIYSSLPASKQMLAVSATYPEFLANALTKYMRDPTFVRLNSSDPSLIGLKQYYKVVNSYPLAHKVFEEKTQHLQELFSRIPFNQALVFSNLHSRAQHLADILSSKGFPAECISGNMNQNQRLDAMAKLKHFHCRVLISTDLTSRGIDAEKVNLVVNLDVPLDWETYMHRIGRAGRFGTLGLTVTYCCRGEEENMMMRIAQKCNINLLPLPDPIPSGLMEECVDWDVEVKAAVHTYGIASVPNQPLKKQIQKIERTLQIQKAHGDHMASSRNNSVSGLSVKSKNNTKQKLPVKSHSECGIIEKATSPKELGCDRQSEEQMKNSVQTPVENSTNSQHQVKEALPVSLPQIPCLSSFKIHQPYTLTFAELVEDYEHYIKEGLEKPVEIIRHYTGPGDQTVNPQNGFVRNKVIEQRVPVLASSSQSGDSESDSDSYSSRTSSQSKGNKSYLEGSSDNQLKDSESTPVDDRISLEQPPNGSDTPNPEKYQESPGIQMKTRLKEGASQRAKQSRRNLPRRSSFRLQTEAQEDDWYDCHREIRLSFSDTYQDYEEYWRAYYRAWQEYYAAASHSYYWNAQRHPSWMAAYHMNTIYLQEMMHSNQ
UniProt Q02127: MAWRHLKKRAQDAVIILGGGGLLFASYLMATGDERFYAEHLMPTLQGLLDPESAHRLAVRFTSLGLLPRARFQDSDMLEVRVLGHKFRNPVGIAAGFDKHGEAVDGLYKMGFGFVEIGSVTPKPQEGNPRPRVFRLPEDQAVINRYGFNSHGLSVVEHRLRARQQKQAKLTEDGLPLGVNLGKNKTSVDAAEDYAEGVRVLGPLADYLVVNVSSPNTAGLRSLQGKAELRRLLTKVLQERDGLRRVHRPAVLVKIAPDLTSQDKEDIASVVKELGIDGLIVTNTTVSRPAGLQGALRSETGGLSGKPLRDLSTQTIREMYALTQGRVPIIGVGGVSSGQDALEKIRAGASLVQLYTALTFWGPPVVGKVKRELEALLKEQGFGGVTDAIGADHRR

What was measured:
Assay in all cases: log2 fold change, soluble protein after heating vs DMSO (PISA); higher = thermal stabilisation; K562 cells, 10 uM, 30 min; active = over 0.2 and 3.5 SD of the protein, either way, in both replicates (recomputed)
[1] = compound: C#Cc1cccc(Nc2ncnc3cc(OCCOC)c(OCCOC)cc23)c1 [erlotinib]
Outline: (§1)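 K562 cells at 2×10^6 cells/mL were given 10 μM compound for 30 min. Aliquots then went through 3 min of heating across 48°C-58°C, were pooled, and were extracted in PBS with 0.5% NP-40 at 4°C, and the supernatant after 21,000xg for 90 min was quantified by TMTpro 16plex LC-MS/MS with channel sums equalised. Thermal stability relative to control samples, from duplicates, is given as log2 fold change.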

[2] = compound: C/C(=N\NC(=O)C1=CC(=CC=C1)S(=O)(=O)N2CCOCC2)/C3=C(C=CC(=C3)Cl)O
Outline: as §1

[3] = compound: C1=CC(=C(C=C1Cl)C2=NC3=NC=CN=C3C(=N2)NC4=CC=NC=C4)F
Outline: as §1

[4] = compound: C1=CC(=CC=C1C2=NC3=C(N2)C=C(C=C3)C(=O)N)OC4=CC=C(C=C4)Cl
Outline: as §1

[5] = compound: C1=CC2=C(C=CC(=C2)/C=C\3/C(=O)NC(=NCC4=CC=CS4)S3)N=C1
Outline: as §1

[6] = compound: C1=CC2=NC=CN=C2C=C1/C=C/3\C(=O)NC(=O)S3
Outline: as §1

[7] = compound: C1=CC=C(C=C1)C2=NC(=C(N2)C3=CC=NC=C3)C4=CC(=C(C=C4)Cl)O
Outline: as §1

[8] = compound: C1=CC=C2C(=C1)C3=NNC4=CC=CC(=C43)C2=O
Outline: as §1

[9] = compound: C1CCN(C1)C(=O)NC2=CC=CC(=C2)NC3=NC=C(C(=N3)NCCC4=CN=CN4)Br
Outline: as §1

[10] = compound: C1CN(CCC1(CC2=CC=C(C=C2)Cl)N)C3=NC=NC4=C3C=CN4
Outline: as §1

[11] = compound: C1COCCN1CCN2C3=CC=CC=C3N=C2NC(=O)C4=CC(=CC=C4)[N+](=O)[O-] [IRAK-1-4 Inhibitor I]
Outline: as §1

[12] = compound: C=CC(=O)N1CCC[C@@H](n2nc(-c3ccc(Oc4ccccc4)cc3)c3c(N)ncnc32)C1 [ibrutinib]
Outline: as §1

[13] = compound: CC(=O)c1cnc2ccc(-c3cc(Cl)c(O)c(Cl)c3)nc2c1N[C@H]1CC[C@H](CN(C)C)CC1
Outline: as §1

[14] = compound: CC(C)(C)Cn1c(N)nc2ccc(-c3[nH]c(C(C)(C)C)nc3-c3ccc(F)cc3)nc21 [ralimetinib]
Outline: as §1

[15] = compound: CC(C)(O)CC(=O)NCCn1ccc2ncnc(Nc3ccc(Oc4cccc(C(F)(F)F)c4)c(Cl)c3)c21
Outline: as §1

[16] = compound: CC(C)C1=C2N=C(C=C(N2N=C1)NCC3=CC=CC=C3)NCCCCCCN
Outline: as §1

[17] = compound: CC(C)C[C@@H](C=O)NC(=O)[C@H](CC(C)C)NC(=O)[C@H](CC(C)C)NC(=O)OCc1ccccc1
Outline: as §1

[18] = compound: CC(C)N(C[C@H]1O[C@@H](n2cnc3c(N)ncnc32)[C@H](O)[C@@H]1O)[C@H]1C[C@@H](CCc2nc3cc(C(C)(C)C)ccc3[nH]2)C1 [pinometostat]
Outline: as §1

[19] = compound: CC1=C(C(CC(=O)N1)C2=CC=C(C=C2)C(F)(F)F)C(=O)NC3=C(C=C4C(=C3)C=NN4)F
Outline: as §1

[20] = compound: CC1=C(C2=C(C=C1)C(=O)C3=CC=CC=C3N2CCCN)C
Outline: as §1

Measured: log2 fold change

DHX38 (UniProt Q92620)
inactive: [1] -0.012 | [2] 0.026 | [3] -0.001 | [4] 0.046 | [5] -0.038 | [6] 0.037 | [7] -0.032 | [8] 0.008 | [9] -0.007 | [10] -0.007 | [11] 0.053 | [12] 0.049 | [13] 0.081 | [14] 0.026 | [15] 0.033 | [16] 0.068 | [17] 0.005 | [18] 0 | [19] -0.018 | [20] 0.062

DDHD2 (UniProt O94830)
inactive: [1] 0.031 | [2] 0.021 | [3] 0.001 | [4] 0.011 | [5] 0.009 | [6] 0.033 | [7] -0.034 | [8] -0.009 | [9] -0.004 | [10] 0.063 | [11] 0.042 | [12] 0.023 | [13] -0.079 | [14] 0.01 | [15] -0.009 | [16] -0.13 | [17] 0.01 | [18] 0.006 | [19] 0.012 | [20] 0.045

DERL1 (UniProt Q9BUN8)
inactive: [1] -0.018 | [2] 0.011 | [3] 0.029 | [4] -0.01 | [5] 0.032 | [6] -0.009 | [7] 0.006 | [8] -0.031 | [9] -0.023 | [10] 0.034 | [11] -0.045 | [12] 0.059 | [13] -0.09 | [14] -0.039 | [15] -0.049 | [16] -0.004 | [17] -0.101 | [18] 0.014 | [19] 0 | [20] 0.036

DHRS4L1 (UniProt P0CG22)
inactive: [1] 0.022 | [2] 0.01 | [3] 0.047 | [4] -0.029 | [5] 0.045 | [6] 0.032 | [7] -0.038 | [8] -0.082 | [9] 0.039 | [10] 0.038 | [11] 0.022 | [12] -0.01 | [13] -0.037 | [14] -0.01 | [15] -0.004 | [16] 0.008 | [17] 0.03 | [18] -0.027 | [19] 0.057 | [20] 0.017

DGCR8 (UniProt Q8WYQ5)
inactive: [1] -0.165 | [2] -0.086 | [3] -0.469 | [4] 0.027 | [5] -0.055 | [6] -0.14 | [7] -0.022 | [8] 0.013 | [9] 0.039 | [10] -0.231 | [11] -0.203 | [12] 0.18 | [13] -0.085 | [14] 0.129 | [15] 0.009 | [16] 0.119 | [17] 0.073 | [18] 0.136 | [19] -0.109 | [20] -0.299

DNAJA2 (UniProt O60884)
inactive: [1] 0.011 | [2] 0.006 | [3] 0.04 | [4] 0.02 | [5] 0.05 | [6] 0.024 | [7] 0.021 | [8] -0.011 | [9] -0.025 | [10] -0.008 | [11] -0.001 | [12] 0.014 | [13] -0.042 | [14] -0.051 | [15] -0.001 | [16] -0.022 | [17] -0.024 | [18] -0.064 | [19] 0.014 | [20] 0.097

DHX57 (UniProt Q6P158)
inactive: [1] -0.072 | [2] -0.071 | [3] -0.225 | [4] 0.049 | [5] -0.054 | [6] -0.059 | [7] 0.032 | [8] -0.027 | [9] 0.078 | [10] -0.072 | [11] -0.1 | [12] 0.076 | [13] 0.072 | [14] 0.154 | [15] 0.024 | [16] 0.033 | [17] 0.108 | [18] 0.176 | [19] -0.014 | [20] -0.135

4 consecutive records out of the list so far, quoted:
DHRS4L1 (UniProt P0CG22)
inactive: [1] 0.022 | [2] 0.01 | [3] 0.047 | [4] -0.029 | [5] 0.045 | [6] 0.032 | [7] -0.038 | [8] -0.082 | [9] 0.039 | [10] 0.038 | [11] 0.022 | [12] -0.01 | [13] -0.037 | [14] -0.01 | [15] -0.004 | [16] 0.008 | [17] 0.03 | [18] -0.027 | [19] 0.057 | [20] 0.017

DGCR8 (UniProt Q8WYQ5)
inactive: [1] -0.165 | [2] -0.086 | [3] -0.469 | [4] 0.027 | [5] -0.055 | [6] -0.14 | [7] -0.022 | [8] 0.013 | [9] 0.039 | [10] -0.231 | [11] -0.203 | [12] 0.18 | [13] -0.085 | [14] 0.129 | [15] 0.009 | [16] 0.119 | [17] 0.073 | [18] 0.136 | [19] -0.109 | [20] -0.299

DNAJA2 (UniProt O60884)
inactive: [1] 0.011 | [2] 0.006 | [3] 0.04 | [4] 0.02 | [5] 0.05 | [6] 0.024 | [7] 0.021 | [8] -0.011 | [9] -0.025 | [10] -0.008 | [11] -0.001 | [12] 0.014 | [13] -0.042 | [14] -0.051 | [15] -0.001 | [16] -0.022 | [17] -0.024 | [18] -0.064 | [19] 0.014 | [20] 0.097

DHX57 (UniProt Q6P158)
inactive: [1] -0.072 | [2] -0.071 | [3] -0.225 | [4] 0.049 | [5] -0.054 | [6] -0.059 | [7] 0.032 | [8] -0.027 | [9] 0.078 | [10] -0.072 | [11] -0.1 | [12] 0.076 | [13] 0.072 | [14] 0.154 | [15] 0.024 | [16] 0.033 | [17] 0.108 | [18] 0.176 | [19] -0.014 | [20] -0.135

(listing goes on)

DDX21 (UniProt Q9NR30)
inactive: [1] -0.013 | [2] -0.049 | [3] -0.282 | [4] 0.065 | [5] -0.038 | [6] 0.139 | [7] 0.043 | [8] -0.039 | [9] -0.008 | [10] -0.223 | [11] -0.077 | [12] -0.015 | [13] 0.008 | [14] 0.117 | [15] -0.026 | [16] 0.022 | [17] 0.291 | [18] 0.248 | [19] -0.032 | [20] 0.006

DIS3L2 (UniProt Q8IYB7)
inactive: [1] 0.013 | [2] -0.024 | [3] -0.065 | [4] 0 | [5] 0.011 | [6] 0.173 | [7] -0.006 | [8] -0.111 | [9] 0.037 | [10] -0.164 | [11] -0.034 | [12] 0.002 | [13] -0.035 | [14] 0.06 | [15] 0.037 | [16] -0.048 | [17] 0.023 | [18] 0.068 | [19] -0.022 | [20] -0.261

DLG3 (UniProt Q92796)
inactive: [1] 0.102 | [2] 0.028 | [3] -0.013 | [4] 0.146 | [5] 0.1 | [6] -0.156 | [7] 0.025 | [8] -0.14 | [9] -0.001 | [10] -0.016 | [11] 0.064 | [12] 0.003 | [13] -0.129 | [14] -0.002 | [15] 0 | [16] -0.057 | [17] 0.137 | [18] -0.002 | [19] -0.054 | [20] 0.062

DLG1 isoform 2 (UniProt Q12959)
inactive: [1] 0.028 | [2] -0.019 | [3] 0.015 | [4] 0.009 | [5] 0.016 | [6] 0.062 | [7] 0.025 | [8] 0.007 | [9] 0.002 | [10] -0.048 | [11] 0.009 | [12] 0.062 | [13] -0.156 | [14] 0.012 | [15] -0.078 | [16] -0.026 | [17] -0.006 | [18] 0.019 | [19] -0.018 | [20] 0.03

DHRS11 (UniProt Q6UWP2)
inactive: [1] 0.095 | [2] -0.002 | [3] 0.067 | [4] -0.019 | [5] 0.059 | [6] -0.009 | [7] 0.042 | [8] 0.038 | [9] -0.037 | [10] 0.098 | [11] 0.079 | [12] 0.028 | [13] -0.1 | [14] 0.01 | [15] -0.036 | [16] 0.001 | [17] -0.058 | [18] -0.03 | [19] 0.01 | [20] 0.129

DDRGK1 (UniProt Q96HY6)
inactive: [1] 0.027 | [2] 0 | [3] 0.005 | [4] 0.016 | [5] -0.048 | [6] -0.024 | [7] -0.008 | [8] -0.068 | [9] 0.115 | [10] 0.019 | [11] -0.011 | [12] 0.026 | [13] -0.003 | [14] 0.033 | [15] -0.033 | [16] 0.017 | [17] 0.078 | [18] 0.005 | [19] 0.021 | [20] 0.083

DDX20 (UniProt Q9UHI6)
inactive: [1] 0.14 | [2] -0.163 | [3] -0.494 | [4] -0.137 | [5] 0.093 | [6] 0.018 | [7] -0.032 | [8] -0.224 | [9] 0.012 | [10] -0.094 | [11] -0.117 | [12] -0.115 | [13] -0.197 | [14] 0.133 | [15] -0.009 | [16] -0.262 | [17] 0.108 | [18] 0.547 | [19] -0.027 | [20] -0.37

DMAC2 isoform 4 (UniProt Q9NW81)
inactive: [1] 0.043 | [2] 0.048 | [3] 0.063 | [4] -0.008 | [5] 0.075 | [6] -0.038 | [7] 0 | [8] 0.013 | [9] 0.062 | [10] 0.02 | [11] -0.067 | [12] -0.048 | [13] -0.051 | [14] -0.049 | [15] 0.018 | [16] 0.043 | [17] -0.012 | [18] -0.099 | [19] 0.018 | [20] 0.004

DHODH (UniProt Q02127)
inactive: [1] 0.026 | [2] 0.017 | [3] 0.058 | [4] 0.002 | [5] 0.012 | [6] 0.023 | [7] -0.037 | [8] 0.014 | [9] -0.031 | [10] 0.076 | [11] 0.016 | [12] -0.007 | [13] 0.005 | [14] -0.058 | [15] -0.009 | [16] 0.037 | [17] -0.009 | [18] -0.012 | [19] 0.008 | [20] -0.005
